Laboratory results reported in patent US12410157B2, “Compound useful as toll-like receptor 7 activation inhibitor” (TOYAMA PREFECTURAL UNIVERSITY, priority 2020, dated 2025).
For at least one compound, name, drawing or mass did not settle the structure.

Molecular target: T1, TLR7 (Mus musculus, UniProt P58681)
T1 sequence (P58681 27-1050): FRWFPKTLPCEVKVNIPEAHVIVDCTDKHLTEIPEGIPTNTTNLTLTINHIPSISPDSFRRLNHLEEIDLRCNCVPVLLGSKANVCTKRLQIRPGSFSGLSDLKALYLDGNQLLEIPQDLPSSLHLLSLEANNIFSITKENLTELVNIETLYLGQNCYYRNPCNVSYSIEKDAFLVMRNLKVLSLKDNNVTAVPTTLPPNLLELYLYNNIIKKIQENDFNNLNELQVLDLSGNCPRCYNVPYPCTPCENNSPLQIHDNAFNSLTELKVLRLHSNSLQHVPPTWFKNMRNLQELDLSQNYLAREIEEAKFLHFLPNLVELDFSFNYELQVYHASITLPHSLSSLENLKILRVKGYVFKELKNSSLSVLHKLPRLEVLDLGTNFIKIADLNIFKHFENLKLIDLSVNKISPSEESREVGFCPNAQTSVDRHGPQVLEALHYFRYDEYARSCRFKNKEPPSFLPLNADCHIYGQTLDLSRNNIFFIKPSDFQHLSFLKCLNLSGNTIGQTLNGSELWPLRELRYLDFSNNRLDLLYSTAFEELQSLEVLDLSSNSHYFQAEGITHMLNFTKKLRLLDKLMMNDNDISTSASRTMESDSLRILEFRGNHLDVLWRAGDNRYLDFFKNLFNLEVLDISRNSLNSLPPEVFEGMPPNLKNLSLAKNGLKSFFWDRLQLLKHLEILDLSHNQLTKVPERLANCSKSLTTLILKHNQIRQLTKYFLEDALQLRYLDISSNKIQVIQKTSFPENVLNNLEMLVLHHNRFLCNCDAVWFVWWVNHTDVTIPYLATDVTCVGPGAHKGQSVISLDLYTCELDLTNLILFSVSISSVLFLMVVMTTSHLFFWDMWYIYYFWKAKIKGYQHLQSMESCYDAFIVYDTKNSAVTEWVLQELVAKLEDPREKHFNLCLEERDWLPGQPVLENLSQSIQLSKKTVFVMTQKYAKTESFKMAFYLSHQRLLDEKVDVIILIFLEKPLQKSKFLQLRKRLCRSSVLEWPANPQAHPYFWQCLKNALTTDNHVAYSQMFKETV
Assay: TLR7 selectivity in mouse BMDM: IL-6 on stimulation with TLR7 ligand R848
Assay type: cell-based
Parameters: Mouse BMDMs induced to differentiate by culture were spread into each well of a 96-well plate; endogenous in cells; host or cells: mouse bone marrow-derived macrophages (BMDM); mouse Flt-3 ligand-induced dendritic cells (FLDC)
Settings: conclusion from FIG. 3

Q: With `C=C(C)[C@@H]1CC[C@]2(COC(=O)C2)C[C@H]1c1ccc(CN2CCNCC2)cc1` [B2-24-4-5A·HCOOH] as the compound, how does the TLR7 selectivity read?
A: selective inhibitor of TLR7
